The source of these data is paper PMC4909252, “High-resolution NMR structures of the domains of Saccharomyces cerevisiae Tho1”.

A negative result means that nothing was seen under these conditions. At least one verdict was read from the data and is not stated in words by the source. Where a protein sequence is shown, tags need not be part of it.

The target in the series is T1, Tho1 C-terminal domain (Saccharomyces cerevisiae) (UniProt P40040).
T1 sequence (looked up): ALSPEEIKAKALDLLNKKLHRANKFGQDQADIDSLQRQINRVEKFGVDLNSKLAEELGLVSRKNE
The series can be described thus: NMR (15N HSQC). The settings on record: 200 uM protein, 200 uM oligo, 200 uM protein and oligo, typical NMR buffer 20 mM potassium phosphate pH 6.5, 100 mM NaCl, 5 mM beta-mercaptoethanol, 10% D2O, 25 C, recombinant protein, residues 119-183, protein details: His6-lipoyl fusion removed by TEV, 15N-labelled.
For the sequence AAAAAAAAAAAAAAAAAA [18-mer polyA], the binding result is reported as “no binding”.
The same measure for CUUGUACAUAGUUGGCCAUA [20-mer ssRNA]: “no binding”; for “GGACAGCUGUCCCUUCGGGGACAGCUGUCC [30-mer dsRNA]”: “no binding”.
For UUUUUUUUUUUUUUUUUU [18-mer polyU] the value was “no binding”.
